Values of other authors, collected in article PMC6153549 (Investigational New Drugs, 2018).

System: UGTs
Settings: in vitro, human liver microsomes; cited from earlier work

CNC(=O)c1ccccc1Sc1ccc2c(/C=C/c3ccccn3)n[nH]c2c1 [axitinib]
inhibition of paracetamol glucuronidation: slight inhibitory effect
